# According to PubChem BioAssay AID445 (National Center for Advancing Translational Sciences (NCATS), 2006):
# Where “and” joins values, the source holds several entries; their conditions need not be identical. Identical values can stand only once. The list shows a part of the results. The main result of the screen is listed elsewhere. These columns were measured beside it and carry no call. Most of these compounds were active or inconclusive in the main read-out, so they are no random draw. Words in brackets tell the shape of the fitted curve; partial curves, single points and poor fits give uncertain potencies.
# Test: IkB Signaling
# Details: ABC-DLBCL IkBa-CBG/CBR dual luciferase ratio (green luciferase fused to IkBa over red control in OCI-Ly3 lymphoma cells), 4 h
# In short: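 Luminescence ratio of IκBα-fused green versus native red beetle luciferase in OCI-Ly3 cells, 4 h post-doxycycline with compound; red signal alone, scaled from basal (0%) to zero light (-100%), flagged nonspecific or cytotoxic effects.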
# [1] = measured here: control luc red channel unless noted
structure (smiles),measurement,setting,value
Cc1ccc2cc3cc(C(=O)NCCCN4CCc5ccccc5C4)oc3nc2c1,AC50,[1],"25.1 µM [falling, partial curve]"
CCS(=O)(=O)N1CCc2cc(C(=O)Nc3cccc(NC(C)=O)c3)ccc21,AC50,[1],"31.6 µM [falling, single point]"
O=C(Cn1ncc2c1-c1ccccc1OC2)Nc1ccc(S(=O)(=O)N2CCCCC2)cc1,AC50,[1],"12.6 µM [falling, partial curve]"
Cc1ccc(C2c3[nH]c4ccccc4c3CCN2C(=O)CSc2ccccc2)cc1 (centres undefined),AC50,[1],"25.1 µM [falling, partial curve]"
S=C(S)N1CCCC1,AC50,[1],"31.6 µM [rising, partial curve] [measured here: IkB-luc green channel] and 39.8 µM [rising, single point] [measured here: IkB-luc green channel]"
N#Cc1cc2c(nc1SCc1nc3ccccc3[nH]1)CCC2,AC50,[1],"15.8 µM [falling, partial curve]"
O=C(CN1CCCN(Cc2cccc(F)c2)S1(=O)=O)Nc1ccc2c(c1)OCCO2,AC50,[1],"12.6 µM [falling, partial curve]"
Cc1cccc(-c2nc(C)c(CCNC(=O)c3cccs3)s2)c1,AC50,[1],"39.8 µM [falling, single point]"
O=C(NCC(c1cccnc1)N1CCc2ccccc2C1)C(=O)Nc1ccc(F)cc1F (centres undefined),AC50,[1],"5.01 µM [rising, partial curve]"
COC(=O)c1nnn(-c2ccc(Cl)cc2)c1C(=O)OC,AC50,[1],"0.00501 µM [rising, full curve, poor fit]"
O=C(CCS(=O)(=O)c1nc(-c2ccc3c(c2)OCO3)cc(C(F)(F)F)n1)Nc1ccc(F)cc1F,AC50,[1],"15.8 µM [falling, partial curve]"
CCS(=O)(=O)c1ncc(Cl)c(C(=O)Nc2c(C(=O)c3ccc(C)cc3)oc3ccccc23)n1,AC50,[1],"12.6 µM [falling, partial curve]"
Cc1ccc(-n2ncc(C(=O)N3CCN(C(=O)c4ccco4)CC3)c2C2CCN(C(=O)OC(C)(C)C)CC2)cc1,AC50,[1],"10 µM [falling, single point]"
CC(C)c1ccc(NC(=O)CCNS(=O)(=O)c2ccc3c(c2)oc(=O)n3C)cc1,AC50,[1],"25.1 µM [falling, partial curve]"
O=C(c1ccc2c(c1)N(Cc1cccc(Cl)c1)C(=O)c1ccccc1S2(=O)=O)N1CCCCCC1,AC50,[1],"31.6 µM [falling, single point]"
Cc1ccc2c(c1)N(C(=O)N1CCC(C(=O)NCc3cccs3)CC1)CC(C)O2 (centres undefined),AC50,[1],"5.01 µM [falling, partial curve]"
Cc1ccc(SCC(=O)N(Cc2nc(-c3ccccc3)no2)C(C)C)cc1,AC50,[1],"31.6 µM [falling, single point]"
CC(C)C[C@H]1C(=O)N2CCC[C@@H]2[C@]2(O)O[C@](NC(=O)[C@@H]3C=C4c5cccc6[nH]c(Br)c(c56)C[C@H]4N(C)C3)(C(C)C)C(=O)N12,AC50,[1],"39.8 µM [falling, single point]"
Cc1oc(C(C)(C)C)cc1C(=O)Nc1ccc2c(c1)OCCO2,AC50,[1],"31.6 µM [falling, single point]"
Cc1ccc(-c2c(C(=O)N(C)Cc3ccccc3)oc(=O)c3ccccc23)cc1,AC50,[1],"25.1 µM [falling, single point]"
COc1ccccc1NC(=O)C1=C(C)Nc2c(C(=O)Nc3cccc(C)c3)cnn2C1c1ccccc1C (centres undefined),AC50,[1],"10 µM [falling, partial curve]"
Cc1ccc(/C=C/c2nc3ccccc3n2S(=O)(=O)c2cccc(Cl)c2)cc1,AC50,[1],"1 µM [falling, full curve]"
COc1ccc(S(=O)(=O)Cc2ccc(C(=O)N3CCN(c4cc(Cl)ccc4C)CC3)o2)cc1,AC50,[1],"7.94 µM [falling, partial curve]"
CCOC(=O)c1ccc(NC(=O)Cn2cc(C(=O)c3cccs3)c3ccccc32)cc1,AC50,[1],"3.98 µM [falling, full curve]"
COc1cc2nc(Nc3ccc(C)c(C)c3)nc(N)c2cc1OC,AC50,[1],"25.1 µM [falling, partial curve, poor fit]"
Cc1nc2ccn(Cc3cccs3)c(=O)c2cc1C(=O)NCc1ccc(Cl)cc1,AC50,[1],"12.6 µM [falling, partial curve, poor fit]"
COc1ccc(-n2nnnc2S(=O)(=O)Cc2ccc(C(=O)O)cc2)cc1,AC50,measured here: IkB-luc green channel,"12.6 µM [falling, partial curve]"
same,AC50,measured here: control luc red channel,"2.51 µM [falling, full curve]"
CCCCOC(=O)c1c(C)oc2ccc(NS(=O)(=O)c3ccc(F)cc3C)cc12,AC50,[1],"25.1 µM [falling, partial curve]"
Cn1c(C(=O)N2CCCC(C(=O)N3CCN(c4ccccc4)CC3)C2)cc2sccc21 (centres undefined),AC50,[1],"15.8 µM [falling, partial curve]"
CCCCNC(=O)CSC1=Nc2ccccc2C2=NC(CCC(=O)NCc3ccccc3OC)C(=O)N12 (centres undefined),AC50,[1],"0.00501 µM [rising, full curve, poor fit]"
Cc1cccc(OC(C)C(=O)Nc2ncn[nH]2)c1 (centres undefined),AC50,[1],"20 µM [rising, partial curve, poor fit]"
CCC(=O)Nc1nc2c(OC)ccc(OC)c2s1,AC50,[1],"10 µM [falling, partial curve]"
CCc1ccc(NC(=O)c2ccc3c(O)c(S(=O)(=O)c4ccc(Cl)cc4)c(=O)[nH]c3c2)cc1,AC50,[1],"15.8 µM [falling, partial curve]"
COCc1cc(=O)n2c([nH]c3ccccc32)c1C#N,AC50,[1],"1 µM [falling, partial curve]"
CCN(CC)c1cc(C)c2cc(NC(=O)c3cccc(OC)c3)ccc2n1,AC50,[1],"5.01 µM [falling, partial curve]"
Cc1ccccc1CN1CCN(S(=O)(=O)c2ccc(F)cc2)CC1,AC50,[1],"15.8 µM [falling, partial curve]"
CCOC(=O)C1CCCN(S(=O)(=O)c2ccc(F)c(C(=O)Nc3ccc(F)c(F)c3)c2)C1 (centres undefined),AC50,[1],"15.8 µM [falling, single point]"
CC(=O)c1cc2c(cc1N/C(=N/S(=O)(=O)c1ccc(C)cc1)c1ccccc1)OCO2,AC50,[1],"6.31 µM [rising, partial curve]"
